These are yes or no findings as the source states them, for the method shown. Binding seen in cells or lysates may run through a third protein. Some binding calls cover weakened binding; strength is not graded here.
Biological target: 14-3-3ζ (human (endogenous in LM3 and Hep-3B)) (UniProt P63104)
Test: co-IP; IP with 14-3-3ζ antibody or control IgG (IP kit, Thermo Fisher) from circPAK1 stable knockdown LM3 cells (sh-circPAK1 vs sh-NC) and circPAK1 stable overexpression Hep-3B cells; immunoblot with 14-3-3ζ, p-LATS1/2 and YAP antibodies

By UniProt entry, the sequences of proteins in these tests, tags left out.
UniProt P63104: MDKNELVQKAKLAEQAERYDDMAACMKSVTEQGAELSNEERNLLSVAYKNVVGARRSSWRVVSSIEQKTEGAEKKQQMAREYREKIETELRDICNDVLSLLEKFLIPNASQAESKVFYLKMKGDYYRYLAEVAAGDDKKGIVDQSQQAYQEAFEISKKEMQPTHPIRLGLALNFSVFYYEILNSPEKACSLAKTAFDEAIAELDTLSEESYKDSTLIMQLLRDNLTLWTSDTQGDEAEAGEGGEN
UniProt P46937: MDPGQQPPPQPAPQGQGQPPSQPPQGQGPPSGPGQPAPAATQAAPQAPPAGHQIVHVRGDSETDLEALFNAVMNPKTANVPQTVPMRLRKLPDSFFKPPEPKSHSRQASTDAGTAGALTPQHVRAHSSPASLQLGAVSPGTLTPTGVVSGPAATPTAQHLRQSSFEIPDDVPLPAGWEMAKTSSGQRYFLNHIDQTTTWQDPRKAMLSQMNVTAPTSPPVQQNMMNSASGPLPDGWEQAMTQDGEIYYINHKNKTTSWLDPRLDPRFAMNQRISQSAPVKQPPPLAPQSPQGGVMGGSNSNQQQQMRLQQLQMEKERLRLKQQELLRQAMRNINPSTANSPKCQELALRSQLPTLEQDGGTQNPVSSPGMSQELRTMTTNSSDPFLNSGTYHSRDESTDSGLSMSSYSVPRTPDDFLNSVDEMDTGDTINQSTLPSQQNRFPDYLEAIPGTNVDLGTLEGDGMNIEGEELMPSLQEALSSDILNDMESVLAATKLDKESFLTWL

binding: binds
Substance: YAP (Yes-associated protein) (from UniProt P46937 1-504)
